Source: the supplement of paper PMC5949888
Most values lie at the floor of the assay. Slopes are relative: functional sequences can read slightly below zero.

System: Saccharomyces cerevisiae PS128 hsf1 delta, HSF1(1-493) fusion
Test: growth estimate (transactivation domain function in HSF1 fusion, heat-shock survival) (a.u. (slope of normalised read count over time)); higher = stronger growth at 37°C, i.e. more transactivation activity
Details: library: random library
Experimental: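 Random 60-nt DNA library encoding peptides of up to 20 aa, fused to the C-terminus of yeast HSF1 residues 1-493 (C-terminal TAD deleted) and expressed from the native HSF1 promoter on a CEN plasmid in hsf1-deleted S. cerevisiae PS128. Cells were selected at 37°C on -trp 5-FOA plates for 0, 2, 4, 6 and 8 days and amplicons were sequenced. Growth estimate is the slope of a robust linear fit of total-sum-normalised read counts (normalised to the first time point) over time, using at least 2 replicates. Sequences are classed functional (TAD activity) above a threshold of -0.13, set from stop-codon control sequences.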

| Substance | growth estimate |
| --- | --- |
| GGIIPDQLRPAVSRTRSVTT | < -0.25 |
| GRLYY | < -0.25 |
| VAGFDLPTVFGMSLNEGLPV | < -0.25 |
| CKLPL | < -0.25 |
| AQWSRKQKQKATTALLTPLD | < -0.25 |
| AVGVGSASQ | < -0.25 |
| RVRKMFCGSDICPDYLVHVN | < -0.25 |
| TCDFPAVAEGENPIRGSR | < -0.25 |
| TRRRSCSVCPLRYPGSTFSW | < -0.25 |
| FLLHGHASLTSSRLVRAGPF | < -0.25 |
| RDVSTTILYGRRSGDPCSQR | < -0.25 |
| GEHCGVMLFLA | < -0.25 |
| APLRIEWVLHCVVIRPEGEN | < -0.25 |
| SAQRSPPLYMSPDT | < -0.25 |
| SCGVISRDRAPLFNGTL | < -0.25 |
| NRRWQAIYHVFTGAGRLLRV | < -0.25 |
| FHTLILDYSDFAVMHAIKGA | < -0.25 |
| SNS | < -0.25 |
| PFYSTVIDGNTDVCGCLSFI | -0.123 |
| GFPES | < -0.25 |
| RPFCSSGSDCCWVEGPGGGP | < -0.25 |
| TQVKIRTLRGITI | < -0.25 |
| GVIKSM | < -0.25 |
| SDKPCSPRVRFHKVVKKSRY | < -0.25 |

Five records drawn at random from the list so far, as already listed:

| Substance | growth estimate |
| --- | --- |
| SNS | < -0.25 |
| TCDFPAVAEGENPIRGSR | < -0.25 |
| SDKPCSPRVRFHKVVKKSRY | < -0.25 |
| RDVSTTILYGRRSGDPCSQR | < -0.25 |
| NRRWQAIYHVFTGAGRLLRV | < -0.25 |

(list continues)

| Substance | growth estimate |
| --- | --- |
| LESSLTGPRPPVVMTLEDES | < -0.25 |
| SLGLTNVRLPVWNRVTLNVL | < -0.25 |
| EPGKYNSTATHGTNLGNSAI | < -0.25 |
| GIGDGVNAPAVLCPPARAGF | 0.428 |
| QIVSANVADTNALTR | < -0.25 |
| PRRTHRGSGNCPFRH | < -0.25 |
| GEDSYGAWGPIRGVGGPKDG | < -0.25 |
| SGIRTS | < -0.25 |
| GVDQRLFDALPTEITKQTHQ | < -0.25 |
| LRDQGCDRDSLFSRARASR | < -0.25 |
| SIAFRGLGWLTDVPVRNHFS | < -0.25 |
| VKWYELFNI | < -0.25 |
| LGISGRRFVRSYFEGGPQRR | < -0.25 |
| GPLIRMQCWLTGGSASPLLY | < -0.25 |
| ELSQRRGLLASAVRCSTLAP | < -0.25 |
| GLIPCRPTCRESNSAGQAAP | < -0.25 |
| IWYC | < -0.25 |
| FNRCPRGTPVGIAYRQSRQR | < -0.25 |
| GRRMGAAVN | < -0.25 |
| CYSKLASWFCPGMHLFHNPW | < -0.25 |
| RKSCEVGATKSLHGVEPLRA | < -0.25 |
| QKSDGFGNYRSTSIWRIK | < -0.25 |
| VLSGCVGEGGMRNAFGYLSC | < -0.25 |
| RVV | < -0.25 |

| Substance | growth estimate |
| --- | --- |
| ILFTTLGIGVIGNVIFRPG | < -0.25 |
| WDIVSTFQIFLFAYGPFCPL | < -0.25 |
| VWSVNTLTDACRRYRPVRIA | < -0.25 |
| RQIISGS | < -0.25 |
| SPHTFSISLGSCEQALPTDR | < -0.25 |
| YVG | < -0.25 |
| NPGVYTAVGRRTGRTVVLYF | < -0.25 |
| CKIAAWWIRE | < -0.25 |
| GDRARAIQ | < -0.25 |
| NLVIDVGTAKHFR | < -0.25 |
| CTTGWKPKKEVRSHGQTTAL | < -0.25 |
| TKTTVRRG | < -0.25 |
| SWFGGPFSRSR | < -0.25 |
| WTENQHFRTYKGVSDSTNVL | < -0.25 |
| TLS | < -0.25 |
| TVRG | < -0.25 |
| DCESCSSDKEGW | < -0.25 |
| LANDPLDRASQPGFFSKSGN | < -0.25 |
| RCRGGGESRIWAVVRNGARG | < -0.25 |
| TSFEMTL | < -0.25 |
| LSLHDFPYV | < -0.25 |
| SRPSTPSKRFGASNDAMLSA | < -0.25 |
| RSREWPALRNALSRL | < -0.25 |
| FISR | < -0.25 |

| Substance | growth estimate |
| --- | --- |
| NGKEVLEPRIDRVQVGILGV | < -0.25 |
| LGVDVIASDLAPVSAYELGC | < -0.25 |
| TQYHCLLDSCKHKSPAYFMG | < -0.25 |
| ITRGRSA | < -0.25 |
| STVSLKCALDPS | < -0.25 |
| LPSGITWQGGHREAG | < -0.25 |
| DVALYV | < -0.25 |
| QITVWTIGQGEVPVYPRFDH | < -0.25 |
| RLPNNDVPRWLSISGVPNCS | < -0.25 |
| GVLRLNSMNEPGYGKNPVVG | < -0.25 |
| YRWRVPVSARWAYESKSPED | < -0.25 |
| SHTLEGSWMPDTRGSLRSDL | < -0.25 |
| LLMGLIRSAVSDEGAGTAWD | < -0.25 |
| VFGTRRGKRGNVQCLGNQGE | < -0.25 |
| KFSVLLWCRHK | < -0.25 |
| QFVSLSADQFCPDRSVNPLA | < -0.25 |
| VLSARWSVE | < -0.25 |
| CTLMPK | < -0.25 |
| SEWVLSFKVV | < -0.25 |
| GERVGHFVVKVREESRGSGS | < -0.25 |
| TGLWWYLLRRVDCSKLTLPQ | < -0.25 |
| LQSL | < -0.25 |
| DKFGRIAHYI | < -0.25 |
| SHIAIGKLLVILRAAPATEG | < -0.25 |

| Substance | growth estimate |
| --- | --- |
| NETAMGFPELPGSPLPVRCT | < -0.25 |
| PPQSLRSCWAGYRYWMGYTQ | < -0.25 |
| VMPSIRSPR | < -0.25 |
| RVDKQ | < -0.25 |
| CLHSS | < -0.25 |
| PAS | < -0.25 |
| YQEDRRPGRRADEP | -0.245 |
| RRALIY | < -0.25 |
| GAPT | < -0.25 |
| LCMDKSVADLSKCPVGY | < -0.25 |
| VGARKGDYGKPRTRQSRSAR | < -0.25 |
| GIRLFGSCVNIGFPKGGSGV | < -0.25 |
| GIRLTWIQSAIFADGEMRTF | < -0.25 |
| TPIQVLGTRVVFALSNLERS | < -0.25 |
| DFLRRRVYIARLI | < -0.25 |
| YCQRRVG | < -0.25 |
| PMISGLFRTKMGCKGARSKS | < -0.25 |
| RSAAGCSALEGGKPTTVKYR | < -0.25 |
| VLVAHVKPQLLGFMYVLTLE | < -0.25 |
| PIQHPSRLDRTDACAKCPAV | < -0.25 |
| EVTRDVRLSIACGGLGGGHR | < -0.25 |
| FPVDGEYGDTIPSTAYSFNG | -0.0435 |
| GCSEAGDDTDSWTHADFGNA | 0.183 |
| ALFTSLQAETNLCRTKLTPL | < -0.25 |

| Substance | growth estimate |
| --- | --- |
| RLSGERKFEAQRFAISGSGR | < -0.25 |
| REEDAFRSLCLV | < -0.25 |
| SAWGLEGQRLSSKR | < -0.25 |
| PVLFV | < -0.25 |
| ATPYVLRAQATLYPSTVVRT | < -0.25 |
| GTKIFAC | < -0.25 |
| WVALQLVWRGL | < -0.25 |
| LGVK | < -0.25 |
| RRRGGRRHVGTVDGEGTRN | < -0.25 |
| HCRSDGRFSALISIIKRKHF | < -0.25 |
| IKLI | < -0.25 |
| RFPHLGR | < -0.25 |
| PSPVQNAGCGVFA | < -0.25 |
| QKGSLSWFSI | < -0.25 |
| HTQPSCELLDRRLGDATANP | < -0.25 |
| IPA | < -0.25 |
| GIGGATRYVNQFFCPTFRG | < -0.25 |
| PDTTGL | < -0.25 |
| VSVQGNVTVTIFVATGVYGQ | < -0.25 |
| QTVI | < -0.25 |
| RERPCRAYA | < -0.25 |
| LWS | < -0.25 |
| APNLSWYDVCGITRPNRETD | < -0.25 |
| CVDPGGRV | < -0.25 |

| Substance | growth estimate |
| --- | --- |
| FDGP | < -0.25 |
| FIGTL | -0.246 |
| GSYNLRGNSCTASVCGFGDP | < -0.25 |
| EITPAHLLDMLRIAI | < -0.25 |
| GCICALQWTEM | < -0.25 |
| FTGVYKSTLTWWINTTSIRL | < -0.25 |
| FDSPSVRERRSKSFPSGRRG | < -0.25 |
| FQPHTAAWYPLVFR | < -0.25 |
| CSSIIHAMPAVS | < -0.25 |
| GMAHTTIVPSRATQKVYDPN | < -0.25 |
| YRQSLRVVVYLSCSLTLPQI | < -0.25 |
| LVQERSVNKHGNVVV | < -0.25 |
| GHQG | < -0.25 |
| GSEVERQ | < -0.25 |
| WNMEPPSLYGRAASPRP | < -0.25 |
| SSLTPGGVACLGRHAGNAVH | < -0.25 |
| YGGGGLKATWPMELRLIR | < -0.25 |
| NKKSCSL | < -0.25 |
| AVQTC | < -0.25 |
| RSLGRRRLTNPR | < -0.25 |
| RGL | < -0.25 |
| GVGDYQSVTSFSQSSLNKI | -0.246 |
| TRLCVTTY | < -0.25 |
| HSLLISLQ | < -0.25 |

| Substance | growth estimate |
| --- | --- |
| RRTRVGLLGRGDPEFLGNGP | < -0.25 |
| YYNRSSLSTPYYTPAPRNVA | < -0.25 |
| RAHNYNEPRQASNSCRDLKY | < -0.25 |
| PIGISLSQVAKPVKLAIPYP | < -0.25 |
| PQT | < -0.25 |
| ILKLRCSSILCVRYCDRFSG | < -0.25 |
| RSRSISFTSKSALNAPNFKN | < -0.25 |
| LALGVLITEILEILILAGN | < -0.25 |
| CEVVRSAGRYQVSVM | < -0.25 |
| INSVCNDVFIWTAVMALHGR | < -0.25 |
| VNGLSKALRVPCASQTALVK | < -0.25 |
| GEGVSSMGRRWHHCISR | < -0.25 |
| HDGRVDERVSLSQNCVRSAW | < -0.25 |
| LMLWVGPRASSNFSQPPPPR | < -0.25 |
| IGTRLIWGVG | -0.221 |
| GPTKSSPFAAYRLV | -0.238 |
| WSSPNVSRGHRLSPCGSTNC | < -0.25 |
| FLFYGSLRVPVCPVSSH | < -0.25 |
| AYSGRQRKRFIIITWYRVSG | < -0.25 |
| AAEEHG | < -0.25 |
| GVIARVSTRRRAVNYGSSHR | < -0.25 |
| LVAVPEGFVCGMFGHLYRLP | < -0.25 |
| GPS | < -0.25 |
